Amino acid sequences for entries named in this document (tags omitted).
UniProt P09471, whole entry, looked up: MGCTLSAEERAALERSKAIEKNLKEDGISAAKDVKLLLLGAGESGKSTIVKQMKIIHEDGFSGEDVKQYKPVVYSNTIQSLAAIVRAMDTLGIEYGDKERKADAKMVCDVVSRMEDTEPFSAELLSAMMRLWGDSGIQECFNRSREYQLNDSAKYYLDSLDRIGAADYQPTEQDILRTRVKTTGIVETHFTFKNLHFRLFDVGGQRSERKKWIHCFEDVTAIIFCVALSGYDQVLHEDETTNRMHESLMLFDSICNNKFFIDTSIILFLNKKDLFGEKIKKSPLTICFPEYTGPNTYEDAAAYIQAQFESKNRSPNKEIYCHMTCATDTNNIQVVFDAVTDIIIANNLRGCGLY

Hit rate of the full screen: of about 220,000 compounds, about 770 (0.35%) were called active. Inconclusive means that the source gave no clear call. Such entries were picked first, then a sample of the others. Cut-off read from the data, not from the text of the source: active = binding response below about 49% or above about 150%; inconclusive = no clear call, values can overlap the other calls; inactive = in between.
The compounds below were run against Guanine nucleotide-binding protein G(o) subunit alpha (Homo sapiens) (UniProt P09471) (assay: RGS7-Galphao binding modulators, primary screen, biochemical, multiplexed bead flow cytometry (AID 1439;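 note: fluorescent Galphao held in activated GDP-AlF4 state binding bead-coupled RGS7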)). Details: at 10 µM, actives lie on both sides.
With `CCC(C)NC(=O)CSc1nnc(-c2c[nH]c3ccccc23)o1` (stereo not given) the binding response (% of control) was inconclusive: 89.8%. With `Fc1ccc(-n2cc(CNCCc3cccnc3)c(-c3ccccc3Cl)n2)cc1` the binding response (% of control) was inconclusive: 111%. For `COc1cccc(/C=C/c2ccccn2)c1O`, the binding response (% of control) was inconclusive: 116%. In the case of `O=P(Cc1cc(Br)cc(Br)c1OCCO)(c1ccccc1)c1ccccc1`, the binding response (% of control) was inconclusive: 120%. With `CCOC(=O)N1CCc2c(sc3[nH]c(=S)[nH]c(=S)c23)C1` the binding response (% of control) was inconclusive: 97.3%. For `O=C(/C=C/c1ccco1)NCC1COc2ccccc2O1` (stereo not given), the binding response (% of control) was inconclusive: 91.6%. With `CCCc1cc2c(cc1NC(=O)c1ccco1)OCO2` the binding response (% of control) was inconclusive: 83.6%. For `COC1=C(Nc2ccccc2OC)C(=O)c2ccccc2C1=O`, the binding response (% of control) was inconclusive: 84.1%. `Cc1ccc(-c2nc3cc(N)ccc3o2)c(C)c1` was tested, and the binding response (% of control) was inactive: 102%. For `CCCCOC(=O)C1[C@H]2C(=O)N(c3ccccc3CC)C[C@]23C=C[C@H]1O3` (stereo not given in full), the binding response (% of control) was inactive: 105%. With `CCC(C)/C(C)=N/NC(=O)c1ccccc1OCCOc1ccccc1` (stereo not given) the binding response (% of control) was inconclusive: 134%. In the case of `NC(=O)CSc1c[nH]c2ccccc12`, the binding response (% of control) was active: 25.2%. With `Cc1ccc(NC(=O)COC(=O)c2ccc(Cl)cc2)cc1S(=O)(=O)N(C)C` the binding response (% of control) was inconclusive: 114%. `Fc1ccc(C2=NNC(=NCc3ccccc3)SC2)cc1F` was tested, and the binding response (% of control) was inactive: 96.9%. For `COc1cc([C@@H]2c3cc4c(cc3[C@@H](O)[C@H]3COC(=O)[C@H]23)OCO4)cc(OC)c1O[Si](C)(C)C(C)(C)C`, the binding response (% of control) was inconclusive: 76.2%. `CN(C)S(=O)(=O)c1cccc(C(=O)OCC(=O)NCc2ccc3c(c2)OCO3)c1` was tested, and the binding response (% of control) was inactive: 99.1%. With `CCOc1ccc(N=C/C=C/c2ccccc2)c(O)c1` the binding response (% of control) was inconclusive: 85.6%. With `COc1ccccc1Nc1nc(NCC(C)C)nc(N)c1[N+](=O)[O-]` the binding response (% of control) was inconclusive: 97.3%. `Cc1cc(C(=O)Nc2cc(C(C)(C)C)on2)c(C)o1` was tested, and the binding response (% of control) was inconclusive: 77.3%. With `CCC(C)(C)n1nnnc1C(c1ccc2ncccc2c1)N1CCN(c2ccc(O)cc2)CC1` (stereo not given) the binding response (% of control) was inconclusive: 115%. With `CCOC(=O)c1c(C)[nH]c(C(=O)N2CCN(c3ccc(OC)cc3)CC2)c1C` the binding response (% of control) was inconclusive: 114%. `COc1cccc(/C=N/NC(=O)c2ccoc2C)c1` was tested, and the binding response (% of control) was inconclusive: 101%. For `CCn1c(O)c(N=Nc2ccc(Cl)c(C(=O)O)c2)c2ccccc21`, the binding response (% of control) was inconclusive: 103%. With `COc1ccccc1/C(O)=C(\C#N)c1nc2ccccc2[nH]1` the binding response (% of control) was inactive: 94.6%. With `COc1cc(NC(N)=S)c(OC)cc1Cl` the binding response (% of control) was inconclusive: 112%. In the case of `COc1ccc(Nc2n[nH]c(N)c2C(N)=O)cc1`, the binding response (% of control) was inconclusive: 95.3%. `CC(C)C(O)C1CCN(Cc2nc(Cc3ccccc3Cl)no2)CC1` (stereo not given) was tested, and the binding response (% of control) was inactive: 101%. With `O=S(=O)(Nc1ccc(OC(F)(F)F)cc1)c1cccc2nonc12` the binding response (% of control) was inconclusive: 89.7%. For `N#C/C(=C\c1ccc(Cl)cc1)c1nc2ncccc2[nH]1`, the binding response (% of control) was inactive: 83.7%. With `NS(=O)(=O)c1ccc(O)c(N2C(=O)c3cccc4c(C(=O)c5ccccc5)ccc(c34)C2=O)c1` the binding response (% of control) was inactive: 116%. `CC(C)(C)OC(=O)N1CCC(c2cc(-c3cccs3)n[nH]2)CC1` was tested, and the binding response (% of control) was inactive: 99.2%. `O=C(C1CCN(S(=O)(=O)N2CCC3(CC2)OCCO3)CC1)N1CCC(Cc2ccccc2)CC1` was tested, and the binding response (% of control) was active: 298% [activator]. For `CCOc1ccc(N2C(=O)CC(NCCNc3ccc(C(=O)c4cccs4)cc3)C2=O)cc1` (stereo not given), the binding response (% of control) was inactive: 100%. `Cc1cc(C)n(-c2ccc3nnc(C)n3n2)n1` was tested, and the binding response (% of control) was inconclusive: 99.9%. In the case of `COc1cc(-c2cc(C(=O)Nc3ccccc3N3CCOCC3)c3ccccc3n2)cc(OC)c1OC`, the binding response (% of control) was inconclusive: 99.1%. With `O=C(Nc1ccc(Cl)cn1)C1CCN(S(=O)(=O)c2cccs2)CC1` the binding response (% of control) was inconclusive: 101%. For `Cn1c(=O)[nH]c(=O)c2c1nc(N/N=C/c1ccncc1)n2Cc1ccc(F)cc1`, the binding response (% of control) was inconclusive: 77.4%. With `O=C(O)c1ccc(N=Nc2c(O)[nH]c3ccccc23)cc1` the binding response (% of control) was inconclusive: 98.1%. For `COc1cc2c(cc1OC)CN(CC(=O)Nc1ccc(S(=O)(=O)N(C)C)cc1)CC2`, the binding response (% of control) was inconclusive: 112%. `CCCN1C(=O)/C(=C/c2c(N3CCNC(=O)C3CC(=O)OCC)nc3c(C)cccn3c2=O)SC1=S` (stereo not given) was tested, and the binding response (% of control) was inconclusive: 83.2%. `CCOc1ccc2nc(NC(=O)c3ccccn3)sc2c1` was tested, and the binding response (% of control) was inconclusive: 91.8%. For `CC1CN(C(NC(=O)c2ccccc2)C(Cl)(Cl)Cl)CC(C)O1` (stereo not given), the binding response (% of control) was inactive: 142%. `Cc1cc(C)c(O)c(-c2cc(C(=O)Nc3c(C)n(C)n(-c4ccccc4)c3=O)[nH]n2)c1` was tested, and the binding response (% of control) was inconclusive: 108%. In the case of `C=CCNC(=O)O/N=C/c1csc([N+](=O)[O-])c1`, the binding response (% of control) was inconclusive: 96.9%. For `O=C(c1ccco1)N1CCCC(c2ccccc2)C1` (stereo not given), the binding response (% of control) was inactive: 99.8%.
